doi:10.1101/2019.12.20.885392
No constants are given. Whether binding was seen depends on the method and setting. For some assays here: Binding seen in cells or lysates may run through a third protein. Some results given as binding are weak or reduced against the parent protein; the word gives no strength. For some assays here: Where a sequence is shown, tags or fusion partners need not be part of it.

The chains behind the UniProt entries cited, without tags or fusion partners.
UniProt Q5CCK4: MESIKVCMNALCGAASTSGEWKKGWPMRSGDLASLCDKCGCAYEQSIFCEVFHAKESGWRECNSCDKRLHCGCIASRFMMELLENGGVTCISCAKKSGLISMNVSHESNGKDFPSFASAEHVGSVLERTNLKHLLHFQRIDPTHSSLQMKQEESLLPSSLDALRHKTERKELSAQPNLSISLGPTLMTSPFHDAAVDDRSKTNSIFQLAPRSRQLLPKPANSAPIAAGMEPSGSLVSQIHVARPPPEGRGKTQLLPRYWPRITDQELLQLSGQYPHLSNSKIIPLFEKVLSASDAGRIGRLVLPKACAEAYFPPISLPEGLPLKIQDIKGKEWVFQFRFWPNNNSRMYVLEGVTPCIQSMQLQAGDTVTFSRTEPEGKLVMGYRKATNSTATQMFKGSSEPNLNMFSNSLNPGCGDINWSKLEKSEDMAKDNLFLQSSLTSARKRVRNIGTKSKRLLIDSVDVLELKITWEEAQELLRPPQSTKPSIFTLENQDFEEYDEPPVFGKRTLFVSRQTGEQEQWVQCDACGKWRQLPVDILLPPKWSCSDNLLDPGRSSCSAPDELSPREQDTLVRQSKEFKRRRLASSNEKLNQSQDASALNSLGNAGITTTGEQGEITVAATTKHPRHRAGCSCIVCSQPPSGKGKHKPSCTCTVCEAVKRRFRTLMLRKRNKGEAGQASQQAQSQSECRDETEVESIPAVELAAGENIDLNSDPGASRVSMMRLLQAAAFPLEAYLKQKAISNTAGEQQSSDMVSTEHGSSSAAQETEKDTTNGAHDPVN

T1: HIGH-LEVEL EXPRESSION OF SUGAR INDUCIBLE2 (HSI2), BiFC fusion (Arabidopsis thaliana) (UniProt Q8W4L5)
T1 sequence: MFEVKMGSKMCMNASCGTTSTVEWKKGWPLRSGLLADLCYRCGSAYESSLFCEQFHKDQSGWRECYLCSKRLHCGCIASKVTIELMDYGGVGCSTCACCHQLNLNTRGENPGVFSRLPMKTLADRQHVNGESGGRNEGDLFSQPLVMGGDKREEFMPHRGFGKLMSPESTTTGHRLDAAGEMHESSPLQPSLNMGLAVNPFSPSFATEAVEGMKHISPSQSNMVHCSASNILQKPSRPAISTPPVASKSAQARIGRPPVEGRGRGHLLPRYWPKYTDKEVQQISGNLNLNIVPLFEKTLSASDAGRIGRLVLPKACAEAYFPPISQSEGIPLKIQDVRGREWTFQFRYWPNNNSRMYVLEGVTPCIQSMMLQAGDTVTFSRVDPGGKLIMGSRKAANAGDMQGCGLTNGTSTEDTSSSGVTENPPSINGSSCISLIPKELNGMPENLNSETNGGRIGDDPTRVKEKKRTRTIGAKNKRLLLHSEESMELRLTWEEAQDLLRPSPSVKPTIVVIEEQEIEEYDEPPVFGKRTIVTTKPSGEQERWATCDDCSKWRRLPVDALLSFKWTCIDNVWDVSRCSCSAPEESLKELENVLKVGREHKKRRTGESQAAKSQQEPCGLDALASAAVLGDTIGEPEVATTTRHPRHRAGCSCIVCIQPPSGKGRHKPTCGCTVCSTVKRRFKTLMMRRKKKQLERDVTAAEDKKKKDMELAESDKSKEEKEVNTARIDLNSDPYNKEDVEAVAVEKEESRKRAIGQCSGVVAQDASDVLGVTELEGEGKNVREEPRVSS

T2: HSI2-GFP, for co-immunoprecipitation (Arabidopsis thaliana) (UniProt Q8W4L5)
T2 sequence: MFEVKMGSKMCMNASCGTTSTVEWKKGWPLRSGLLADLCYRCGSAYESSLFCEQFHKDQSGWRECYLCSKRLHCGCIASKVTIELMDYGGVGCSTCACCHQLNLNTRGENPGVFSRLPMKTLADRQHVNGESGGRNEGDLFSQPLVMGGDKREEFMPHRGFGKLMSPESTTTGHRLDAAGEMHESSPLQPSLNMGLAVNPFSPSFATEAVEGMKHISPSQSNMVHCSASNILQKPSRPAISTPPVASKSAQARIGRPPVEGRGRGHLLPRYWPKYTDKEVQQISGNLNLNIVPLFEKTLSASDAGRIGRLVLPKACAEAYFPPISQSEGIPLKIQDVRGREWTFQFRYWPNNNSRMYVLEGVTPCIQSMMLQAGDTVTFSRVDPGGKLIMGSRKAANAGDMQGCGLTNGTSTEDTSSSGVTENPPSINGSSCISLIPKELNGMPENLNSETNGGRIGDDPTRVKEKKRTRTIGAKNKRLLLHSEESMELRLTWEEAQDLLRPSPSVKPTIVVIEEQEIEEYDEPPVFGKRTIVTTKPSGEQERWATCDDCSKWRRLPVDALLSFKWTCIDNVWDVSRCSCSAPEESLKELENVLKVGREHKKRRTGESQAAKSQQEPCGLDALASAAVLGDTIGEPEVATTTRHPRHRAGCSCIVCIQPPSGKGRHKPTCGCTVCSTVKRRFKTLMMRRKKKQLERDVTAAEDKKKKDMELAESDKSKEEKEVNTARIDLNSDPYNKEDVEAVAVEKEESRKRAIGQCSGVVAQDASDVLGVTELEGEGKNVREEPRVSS

T3: HSI2, yeast two-hybrid fusion (Arabidopsis thaliana) (UniProt Q8W4L5)
T3 sequence: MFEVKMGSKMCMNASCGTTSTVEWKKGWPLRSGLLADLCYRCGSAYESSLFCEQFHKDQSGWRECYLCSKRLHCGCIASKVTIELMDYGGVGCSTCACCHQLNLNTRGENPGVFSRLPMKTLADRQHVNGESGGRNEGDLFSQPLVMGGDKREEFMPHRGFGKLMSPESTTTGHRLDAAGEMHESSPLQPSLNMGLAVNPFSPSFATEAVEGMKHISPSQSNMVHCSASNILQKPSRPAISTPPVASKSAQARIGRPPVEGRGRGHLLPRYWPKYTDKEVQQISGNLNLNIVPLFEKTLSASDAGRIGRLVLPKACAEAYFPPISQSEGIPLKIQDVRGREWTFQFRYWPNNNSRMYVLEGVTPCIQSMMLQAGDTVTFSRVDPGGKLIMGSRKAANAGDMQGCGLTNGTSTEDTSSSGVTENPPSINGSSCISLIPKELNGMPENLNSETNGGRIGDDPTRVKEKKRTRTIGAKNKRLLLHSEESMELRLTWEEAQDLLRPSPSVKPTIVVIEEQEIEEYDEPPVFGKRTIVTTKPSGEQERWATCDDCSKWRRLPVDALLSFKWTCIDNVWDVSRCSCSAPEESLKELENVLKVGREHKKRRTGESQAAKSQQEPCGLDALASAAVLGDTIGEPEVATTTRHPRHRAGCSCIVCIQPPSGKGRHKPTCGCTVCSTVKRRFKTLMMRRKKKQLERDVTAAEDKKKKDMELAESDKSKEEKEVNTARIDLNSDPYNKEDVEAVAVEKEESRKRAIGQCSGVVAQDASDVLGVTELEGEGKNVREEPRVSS


What was measured:
[1] = target: T1, HIGH-LEVEL EXPRESSION OF SUGAR INDUCIBLE2 (HSI2), BiFC fusion (Arabidopsis thaliana); assay: split reporter
[2] = target: HSI2-LIKE1 (HSL1), BiFC fusion (Arabidopsis thaliana) (UniProt Q5CCK4); assay: split reporter
[3] = target: HSL1-GFP, for co-immunoprecipitation (Arabidopsis thaliana) (UniProt Q5CCK4); assay: co-IP
[4] = target: T2, HSI2-GFP, for co-immunoprecipitation (Arabidopsis thaliana); assay: co-IP
[5] = target: T3, HSI2, yeast two-hybrid fusion (Arabidopsis thaliana); assay: two-hybrid
[6] = target: HSL1, yeast two-hybrid fusion (Arabidopsis thaliana) (UniProt Q5CCK4); assay: two-hybrid

Binder | binding [1] | binding [2] | also measured
CURLY LEAF (CLF), BiFC fusion (protein, UniProt P93831 1-902) MASEASPSSSATRSEPPKDSPAEERGPASKEVSEVIESLKKKLAADRCISIKKRIDENKKNLFAITQSFMRSSMERGGSCKDGSDLLVKRQRDSPGMKSGIDESNNNRYVEDGPASSGMVQGSSVPVKISLRPIKMPDIKRLSPYTTWVFLDRNQRMTEDQSVVGRRRIYYDQTGGEALICSDSEEEAIDDEEEKRDFLEPEDYIIRMTLEQLGLSDSVLAELASFLSRSTSEIKARHGVLMKEKEVSESGDNQAESSLLNKDMEGALDSFDNLFCRRCLVFDCRLHGCSQDLIFPAEKPAPWCPPVDENLTCGANCYKTLLKSGRFPGYGTIEGKTGTSSDGAGTKTTPTKFSSKLNGRKPKTFPSESASSNEKCALETSDSENGLQQDTNSDKVSSSPKVKGSGRRVGRKRNKNRVAERVPRKTQKRQKKTEASDSDSIASGSCSPSDAKHKDNEDATSSSQKHVKSGNSGKSRKNGTPAEVSNNSVKDDVPVCQSNEVASELDAPGSDESLRKEEFMGETVSRGRLATNKLWRPLEKSLFDKGVEIFGMNSCLIARNLLSGFKSCWEVFQYMTCSENKASFFGGDGLNPDGSSKFDINGNMVNNQVRRRSRFLRRRGKVRRLKYTWKSAAYHSIRKRITEKKDQPCRQFNPCNCKIACGKECPCLLNGTCCEKYCGCPKSCKNRFRGCHCAKSQCRSRQCPCFAADRECDPDVCRNCWVIGGDGSLGVPSQRGDNYECRNMKLLLKQQQRVLLGISDVSGWGAFLKNSVSKHEYLGEYTGELISHKEADKRGKIYDRENCSFLFNLNDQFVLDAYRKGDKLKFANHSPEPNCYAKVIMVAGDHRVGIFAKERILAGEELFYDYRYEPDRAPAWAKKPEAPGSKKDENVTPSVGRPKKLA | binds | binds | –
CURLY LEAF (CLF), for co-immunoprecipitation (protein, UniProt P93831 1-902) MASEASPSSSATRSEPPKDSPAEERGPASKEVSEVIESLKKKLAADRCISIKKRIDENKKNLFAITQSFMRSSMERGGSCKDGSDLLVKRQRDSPGMKSGIDESNNNRYVEDGPASSGMVQGSSVPVKISLRPIKMPDIKRLSPYTTWVFLDRNQRMTEDQSVVGRRRIYYDQTGGEALICSDSEEEAIDDEEEKRDFLEPEDYIIRMTLEQLGLSDSVLAELASFLSRSTSEIKARHGVLMKEKEVSESGDNQAESSLLNKDMEGALDSFDNLFCRRCLVFDCRLHGCSQDLIFPAEKPAPWCPPVDENLTCGANCYKTLLKSGRFPGYGTIEGKTGTSSDGAGTKTTPTKFSSKLNGRKPKTFPSESASSNEKCALETSDSENGLQQDTNSDKVSSSPKVKGSGRRVGRKRNKNRVAERVPRKTQKRQKKTEASDSDSIASGSCSPSDAKHKDNEDATSSSQKHVKSGNSGKSRKNGTPAEVSNNSVKDDVPVCQSNEVASELDAPGSDESLRKEEFMGETVSRGRLATNKLWRPLEKSLFDKGVEIFGMNSCLIARNLLSGFKSCWEVFQYMTCSENKASFFGGDGLNPDGSSKFDINGNMVNNQVRRRSRFLRRRGKVRRLKYTWKSAAYHSIRKRITEKKDQPCRQFNPCNCKIACGKECPCLLNGTCCEKYCGCPKSCKNRFRGCHCAKSQCRSRQCPCFAADRECDPDVCRNCWVIGGDGSLGVPSQRGDNYECRNMKLLLKQQQRVLLGISDVSGWGAFLKNSVSKHEYLGEYTGELISHKEADKRGKIYDRENCSFLFNLNDQFVLDAYRKGDKLKFANHSPEPNCYAKVIMVAGDHRVGIFAKERILAGEELFYDYRYEPDRAPAWAKKPEAPGSKKDENVTPSVGRPKKLA | – | – | binding [3]: binds; binding [4]: binds
HIGH-LEVEL EXPRESSION OF SUGAR INDUCIBLE2 (HSI2), BiFC fusion (protein, UniProt Q8W4L5 1-790) MFEVKMGSKMCMNASCGTTSTVEWKKGWPLRSGLLADLCYRCGSAYESSLFCEQFHKDQSGWRECYLCSKRLHCGCIASKVTIELMDYGGVGCSTCACCHQLNLNTRGENPGVFSRLPMKTLADRQHVNGESGGRNEGDLFSQPLVMGGDKREEFMPHRGFGKLMSPESTTTGHRLDAAGEMHESSPLQPSLNMGLAVNPFSPSFATEAVEGMKHISPSQSNMVHCSASNILQKPSRPAISTPPVASKSAQARIGRPPVEGRGRGHLLPRYWPKYTDKEVQQISGNLNLNIVPLFEKTLSASDAGRIGRLVLPKACAEAYFPPISQSEGIPLKIQDVRGREWTFQFRYWPNNNSRMYVLEGVTPCIQSMMLQAGDTVTFSRVDPGGKLIMGSRKAANAGDMQGCGLTNGTSTEDTSSSGVTENPPSINGSSCISLIPKELNGMPENLNSETNGGRIGDDPTRVKEKKRTRTIGAKNKRLLLHSEESMELRLTWEEAQDLLRPSPSVKPTIVVIEEQEIEEYDEPPVFGKRTIVTTKPSGEQERWATCDDCSKWRRLPVDALLSFKWTCIDNVWDVSRCSCSAPEESLKELENVLKVGREHKKRRTGESQAAKSQQEPCGLDALASAAVLGDTIGEPEVATTTRHPRHRAGCSCIVCIQPPSGKGRHKPTCGCTVCSTVKRRFKTLMMRRKKKQLERDVTAAEDKKKKDMELAESDKSKEEKEVNTARIDLNSDPYNKEDVEAVAVEKEESRKRAIGQCSGVVAQDASDVLGVTELEGEGKNVREEPRVSS | binds | binds | –
HSI2, yeast two-hybrid fusion (protein, UniProt Q8W4L5 1-790) MFEVKMGSKMCMNASCGTTSTVEWKKGWPLRSGLLADLCYRCGSAYESSLFCEQFHKDQSGWRECYLCSKRLHCGCIASKVTIELMDYGGVGCSTCACCHQLNLNTRGENPGVFSRLPMKTLADRQHVNGESGGRNEGDLFSQPLVMGGDKREEFMPHRGFGKLMSPESTTTGHRLDAAGEMHESSPLQPSLNMGLAVNPFSPSFATEAVEGMKHISPSQSNMVHCSASNILQKPSRPAISTPPVASKSAQARIGRPPVEGRGRGHLLPRYWPKYTDKEVQQISGNLNLNIVPLFEKTLSASDAGRIGRLVLPKACAEAYFPPISQSEGIPLKIQDVRGREWTFQFRYWPNNNSRMYVLEGVTPCIQSMMLQAGDTVTFSRVDPGGKLIMGSRKAANAGDMQGCGLTNGTSTEDTSSSGVTENPPSINGSSCISLIPKELNGMPENLNSETNGGRIGDDPTRVKEKKRTRTIGAKNKRLLLHSEESMELRLTWEEAQDLLRPSPSVKPTIVVIEEQEIEEYDEPPVFGKRTIVTTKPSGEQERWATCDDCSKWRRLPVDALLSFKWTCIDNVWDVSRCSCSAPEESLKELENVLKVGREHKKRRTGESQAAKSQQEPCGLDALASAAVLGDTIGEPEVATTTRHPRHRAGCSCIVCIQPPSGKGRHKPTCGCTVCSTVKRRFKTLMMRRKKKQLERDVTAAEDKKKKDMELAESDKSKEEKEVNTARIDLNSDPYNKEDVEAVAVEKEESRKRAIGQCSGVVAQDASDVLGVTELEGEGKNVREEPRVSS | – | – | binding [5]: binds; binding [6]: binds
